Test results from PMC9051519.

T1: FLAG-Cas1 fusion protein (Haloferax volcanii) (UniProt D4GQP0)
T1 sequence: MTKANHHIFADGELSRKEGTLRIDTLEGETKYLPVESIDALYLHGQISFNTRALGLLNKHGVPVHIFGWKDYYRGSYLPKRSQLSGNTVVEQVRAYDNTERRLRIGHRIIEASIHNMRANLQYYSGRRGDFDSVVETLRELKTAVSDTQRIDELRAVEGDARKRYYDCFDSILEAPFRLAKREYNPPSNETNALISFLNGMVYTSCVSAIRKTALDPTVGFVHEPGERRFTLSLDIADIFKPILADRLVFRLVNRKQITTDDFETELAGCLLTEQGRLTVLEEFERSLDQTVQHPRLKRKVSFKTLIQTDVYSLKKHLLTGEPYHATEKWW


biological target: T1, FLAG-Cas1 fusion protein (Haloferax volcanii); experiment: affinity purification with mass spectrometry; FLAG-Cas1 expressed in H. volcanii Δcas1; S100 lysate treated with DNase and RNase A, 150 mM NaCl; anti-FLAG M2 affinity gel overnight at 4°C, washed with 50 mM Tris/HCl pH 7.4, 150 mM NaCl, eluted with 3xFLAG peptide; gel filtration (Superdex 75 Increase), fractions with Cas1 at about 670 kDa analysed by MS; two FLAG-Cas1 purifications, one FLAG-only control

Row | binding | Binder
1 | binds | UvrABC system protein B (protein, UniProt D4GYM4 1-698) MSESGPLSADRPDADREFRVDAPFDPAGDQPEAIEALARGFREGADVQTLLGVTGSGKTNTVSWVVEEIQKPTLVLAHNKTLAAQLYEEFKGLFPDNAVEYFVSYYDYYQPEAYIEQTDTYIDKDMSINEEIDRLRHSATRSLLTRDDVIVVASVSAIYGLGDPKNYTDMSLRLEVGQGMDRDELLRALVDLNYERNDVDFRQGTFRVRGDTVEVFPMYGRYAVRIEFWGDEIDRMLKLDPLEGEVKSSEPAVLVHPAEHYSIPEEQLEGAISEIEELMEQRVKHFQRQGDLVAAQRIEERTTFDIEMLRETGHCSGIENYSVHLSDREPGDAPYTLLDYFPDDFLTVIDESHVTLPQIKGQYAGDKSRKDSLVENGFRLPTAYDNRPLTFEEFEETVGQTLFASATPGDYEREHSDQIVEQIVRPTHLVDPKVEVTEATGQVDDLMARIDERIDRDERVLVTTLTKRMAEDLTEYLEEAGVDVAYMHDETDTLERHELIRSLRLGDIDVLVGINLLREGLDIPEVSLVAILDADQQGFLRSETTLVQTMGRAARNVNGEVVLYADEMTDAMEAAISETQRRRRIQQEFNEEHGYTPTTIEKEVGETNLPGSKTDTRGVSGDEPADADEAVEQIAFLEDRMQEAADNLEFELAADIRDRIQNLRREFDVDALEDGVAPEYPDEHDGEADDGLTPPDEF
2 | binds | repair helicase UvrD (enzyme, UniProt D4GRV6 1-616) MSESDVTVTRLFGGPGSGKTTALLDKVEEILEQDGVTIRDILVVSYTRAAAAEVRDRLAERLDINPRSLKGNVSTMHAKAYELLSLSRNDVVGESDKQEFCEDYGVEFEDEYGGAGRRTARSTTIGNKVIATSQWLQRTRRDVSDWYDVPFQWNVEEVRLPPEVDPNAQEGNKYTPTWPSDDDRIDIPEAIRAWRAYKGEHGLVGFADMLERVKQRALVPNVDYLVIDEFQDITTLQYDVYEEWKPHMRGVLIAGDDDQVVYAWQGADPNLLLDAERDNDEILPNSYRLPSNVLNVVNREIRHIDKRQEKDLKPRKEGGAVEAVESPSMLELARNVRYTVEKDEGTVMVLFRARYQMFQFIDEFLPSGIPFSTLTDQRMWTDRLTQYVRAVEALDAEEPVNGLEARRLADMLQDSAFGTNDRDDLFDAIDDRQEEVGVDDITNIEFTPKEIKNFAPFAPDSSSASDMVRKVTSFQRKSVNAYFGGGYEEMDPSRVRVGTIHSAKGREADHVFMATDLTEKVVEQMAASVSDEELEARGIEEFTATTSPVPLITDNERRVFYVGMSRARERLIVLENLVTGAPTLPISVLLHNEIREEPAQGLVDDAQELPAPEPEA

The remaining lines, values behind:

Row | Binder | binding
3 | DNA-directed RNA polymerase subunit B (protein, UniProt D4GZX4 1-521) MNRQARREVSRKYFSEERLAEHHFRSFNAFLERGMMDVVEEKATIETDIGDKEGEEPVYVELGGVRVETPRVREADGSEELLFPQEARLRNITYSAPVFMEMSIVRGGEEEEEVVVDTAETKVGRMPIMVGSSKCNIAELSDEDLVEIGEDPVDPGGYFIVNGSERVLMTSEDLAPNKILAEYDTKYGDEIQVAKTFSQRRGYRALVLCERNREGLLEVSFPSVSGSVNFVTLVRALGLESDEEIVHRVSDDPEIVKFMLENLEEAEVQTQEQAIEALGKRVAGGQGKNYQLKRANYVIDRYLLPHLHEEGAEEEEVRMNKAYYLCRMAEACFELALQRRDSDDKDHYANKRLKVSGDLMKDLFRTALNKLARDVKYQLERANMRNRNLTVNTVVRSDVLTERLEHPIATGNWVGGRSGVSQLVDRTDYMGVLSHLRRLRSPLSRSQPHFEARDLHATQWGRICPSETPEGPNCGLVKNFAQAMELSQNVEDEQSLKRELASMGVEGIPGIDSVDAAPADD | binds
4 | DNA-directed RNA polymerase subunit A (protein, UniProt D4GZX6 1-976) MSMQTPKEIGSIQFGLMDPETYRDMSATKVITADTYDDDGYPIDMGLMDPRLGVIDPGLQCRTCGQHSGSCNGHFGHIELAAPVIHVGFTKLIRRLLRSTCRECGRLSLTDEEADEYRDKLGRTKELGDDWSDVMKSAVRQARKANRCPHCGSPQHDIKHEKPTTYYEVQNVLAGDYSERIAEAMQPDPDDEDDEGVDPVTLANETGLDAERVNQVLAGEFRPVGDDRKALEKALDLDLTEEDMNKLMPSDIRDWFEDVPDEDLVTLGIDPDRSRPEWMILTVLPVPPVTARPSITLDNGQRSEDDLTHKLVDIIRINQRFMENREAGAPQLIIEDLWELLQYHVTTFIDNEISGTPPARHRSGRPLKTLSQRLKGKEGRFRGSLSGKRVNFSARTVISPDPTLSLNEVGVPDRVASEMTQTMNVTERNVDEARQYVRNGPESHPGANYVRRPDGRRLKVTEKNCEELAEKVELGWEVNRHLVDGDIVIFNRQPSLHRMSIMAHEVVVMPYKTFRLNTVVCPPYNADFDGDEMNMHALQNEEARAEARVLMRVQEQILSPRFGENIIGAIQDHISGTYLLTHDNPEFVETQALDLLRATRVDTLPEPAGENEGGQPYWTGQQIFSELLPDDLNMEFTSKVGDTVSIEDGQLVQGTIDEDAVGAFGGEIVDALAKDYSKTRSRIFINEIASLAMRAIMHFGLSIGIDDESIPDEATAQVDEAIDAAYDKIQELIEIYEAGELESLPGRSVDETLEMKIMQRLGKARDSAGEIAEDHFEEDNPAVVMSKSGARASMLNLTQMAGCVGQQAVRGERINRGYEGRTLSHYQKGDLSAEAHGFVENSYRAGLTPREFFFHAMGGREGLVDTAVRTSKSGYLQRRLINALSELEAQYDGSVRDTSGTIVQFEFGEDGTSPVKVSSDDETPIDVENIADRILTSEFSSDEEKERFLGERAPPTNLSEHAEPRVDARAGVESDD | binds
5 | AAA-type ATPase (CDC48 subfamily) (enzyme, UniProt D4GWM8 1-743) MNEVQLEVAKAYPNDSGRGIARLDPDTLLHLKLSPGDIIEIEGGKTTAAKVWRADRQDWNTDTVRIDGFTRQNADVGIGERVTIRKAEATKADKLVLAPPEEASVQFGSDAAGMVKRQILKRPVVERDIVPVMSSTNHPFMRSPGQAIPLIAVETKPEGVVLVTEDTDVELREEPISGFEKAGGGITYEDIGGLTNEIQRVREMVELPMKHPQIFKKLGIEPPQGVLLHGPPGTGKTLLARAVANETSASFFSIAGPEIISKYYGESEQQLREIFEDAKEESPSIIFIDELDSIAPKREDVTGEVERRVVAQLLTMMDGLEARGQVIVIAATNRVDSVDPALRRPGRFDREIEIGVPDEEGRKEILQIHTRGMPLSDDVDLDDLADDTHGFVGADIEALTKEAAMKALRRYLPEIDLDREDIPPSLIDRMVVKNDDFGGALGEVEPSAMREVLVEIPKVTWNDVGGLEGPKQKVQESVEWPLTTPEKFQRMGIEAPKGVLLYGPPGTGKTLIAKAVANETNANFISVRGPQLLSKWVGESEKAIRQTFRKARQVSPTIIFFDELDALAPARGNDMGNNVSERVVNQLLTELDGLEDAGNVMVIAATNRPDMIDPALIRSGRFDRLVLIGQPEEEGREQILDIHTQQSPLAPDVSLREIAEITDGYVGSDLESICREAAIEALREDSDAEEIEMRHFRKAMESVRPTITEELMRYYEDIQDQFKGGSREGLSPDTRDGGRIGFQ | binds
6 | Smc-like protein Sph2; homolog of Rad50 (protein, UniProt A0A8D3W5K5 1-649) MSSEQVSKSKVHLSVENIGGIDDLSTSFEPGVTVLAGRNATNRTSLLRSIMAAHGSDDVALKGDADEGSVELTIGDEAYTRTFERQGDTVISGGNPVLDDPDLADLFAFLLETNDARQAVARGDDLRDLIMRPVDVESINEQIESLQQEKRDIADELSTLSNLSDRLPQLERRRTKLEDQIEEKEDELAEKEQEVEEYDASVSERQEVESELESKLGDLRSKRRDINDVDRRIETEKQSLDALESEEAELEDDAEDLPEVAGGKIDEIESEISRLRTRRQEIQSTVNELQSVIQFNEEMLSGTSSDVVDALRDADDAGGSVTDQLLGDDQVVCWTCGSEVDKSEIEGTLERLRTLREEKLEDNRDHREQLSELEDEKSTYERRQRERDRIERRLSEIESERETRQERIEELKSDRSDLEAEIDSLEQTVDELESEEHGDLLDLHREANQLEYDLGRLRSDLEDVEDEIADIERKLDERDELEAAREDIEDELEELRTRIKRLESEAVEEFNTHMDDVLDVLEYDNLERIWIERTEKRVREGRRKVTKSVFDLHVIRTNEDGVSYEDSVAHLSESEREVTGLVFALAGYLIHDVYETVPFMVLDSLEAIDSNRISRLVDYFADYADYLTVALLEEDAQAVDSSYPRYSPA | binds
7 | DNA double-strand break repair ATPase Rad50 (enzyme, UniProt D4GUK1 1-893) MRFTRIAIRNFKPYEDAELDLRDGVTVIHGVNGSGKSSLLEACFFALYGSKALAGTLEDVVTTGADDAEITLEFVHDGGEYRIDRRVRVSGDRATTAKCVLDGPEGTVEGARDVRRHVASLLRMDAEAFVNCAYVQQGEVNKLINATPSQRQDMIDDLLQLGKLETYRERAGNARLGVEDVLTKKRSVLEDVESQIEAKEDADLHATLNALESELDSLDEEISNYESQRDKAKSALDAAEATLDEHAEKRERLDEIESAIEDLTAKISADETKRDDLSERVRELDAAADELESDIDDALARADLDDASDEAIADAREALSARESELRDDLSEARTRAQAFETQAERLRERADDLESRAEEKREAAEVDAETAAEAERELESFRETRAELRSALDDAEARFEDAPVELGEAADLLEERREARSEARESLAETETELKNARERLAEAERLRDAGKCPECGQPVEGSPHVDAISEREAAVESLEADRESLESAVESRSAAVEAAEALVEVETRASSRRDRLDLVDERIADREETVESRREAAEEKREAAAELDSEAEEKREAATTQAERAEEVAETVDSLESDLDTLDDRRDRLDRVESLVDTRAEKIDARDRLREKRETLAEVNRERREHLRERRERRDELRETVDEEAVEGAKQRKKNAAAYLERVEDEVLPELREKRDDLQSRVGGVEAELEQLDDLRERRDHLAERVDALESVHDEVSTLESTYGDLRAELRQRNVEVLERMLNETFDLVYANDAYSRIRLDGEYGLTVFQKDGTALEPEQLSGGERALFNLSLRCAIYRLLAEGIDGAAPLPPLILDEPTVFLDGGHVSRLVDLVEDMQSRGVKQILIVSHDEDLVGAADDLVRVEKNPTTNRSTVERTDAPIVEGALADD | binds

No constants are given. Whether binding was seen depends on the method and setting. In cells and extracts the contact can be indirect. Here binding means that the protein was enriched with, or labelled near, the bait; the list need not be complete. Tags and fused reporters may be left off the sequences shown.
